Drawing on article PMC12408853, this text covers binding for one molecule.

Amino acid sequences for entries named in this document (tags omitted).
UniProt Q04206: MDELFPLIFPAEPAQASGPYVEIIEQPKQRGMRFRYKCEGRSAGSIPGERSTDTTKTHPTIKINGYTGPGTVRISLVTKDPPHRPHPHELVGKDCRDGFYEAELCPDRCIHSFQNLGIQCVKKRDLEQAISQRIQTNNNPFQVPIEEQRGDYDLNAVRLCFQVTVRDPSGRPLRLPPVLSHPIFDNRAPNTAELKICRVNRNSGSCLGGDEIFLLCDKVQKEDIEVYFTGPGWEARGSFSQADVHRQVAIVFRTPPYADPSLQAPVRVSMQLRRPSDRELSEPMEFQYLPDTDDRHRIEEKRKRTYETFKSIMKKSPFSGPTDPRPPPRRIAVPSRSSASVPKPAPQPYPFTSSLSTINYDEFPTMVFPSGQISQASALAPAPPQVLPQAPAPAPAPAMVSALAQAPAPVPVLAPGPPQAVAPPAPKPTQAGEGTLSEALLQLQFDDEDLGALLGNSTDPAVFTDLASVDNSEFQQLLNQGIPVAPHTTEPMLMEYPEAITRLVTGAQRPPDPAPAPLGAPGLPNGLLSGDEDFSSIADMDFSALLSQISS

No constants are given. Whether binding was seen depends on the method and setting. In cells and extracts the contact can be indirect. Some entries that bind do so weakly or less than the wild type.

The test addresses NF-κB p65 (human (endogenous in RPMI8226 and OPM2)) (UniProt Q04206). In words: co-IP; endogenous proteins in RPMI8226 and OPM2 lysates (Western and IP lysis buffer, 1 mM PMSF); anti-p65 antibody 6 h at 4°C, Protein A/G magnetic beads overnight at 4°C; rabbit IgG control; washed three times with 0.05% PBST; Western blot. (In western blotting, separated proteins are transferred to a membrane and probed.)

B1: Estrogen-related receptor gamma (ERRγ) (protein, UniProt P62508 1-458)
chain: MDSVELCLPESFSLHYEEELLCRMSNKDRHIDSSCSSFIKTEPSSPASLTDSVNHHSPGGSSDASGSYSSTMNGHQNGLDSPPLYPSAPILGGSGPVRKLYDDCSSTIVEDPQTKCEYMLNSMPKRLCLVCGDIASGYHYGVASCEACKAFFKRTIQGNIEYSCPATNECEITKRRRKSCQACRFMKCLKVGMLKEGVRLDRVRGGRQKYKRRIDAENSPYLNPQLVQPAKKPYNKIVSHLLVAEPEKIYAMPDPTVPDSDIKALTTLCDLADRELVVIIGWAKHIPGFSTLSLADQMSLLQSAWMEILILGVVYRSLSFEDELVYADDYIMDEDQSKLAGLLDLNNAILQLVKKYKSMKLEKEEFVTLKAIALANSDSMHIEDVEAVQKLQDVLHEALQDYEAGQHMEDPRRAGKMLMTLPLLRQTSTKAVQHFYNIKLEGKVPMHKLFLEMLEAKV
As to B1, the binding entry is given as “binds”.
